The source of these data is the supplement of paper PMC6411743.

By UniProt entry, the sequences of proteins in these tests, tags left out. Where a name states a change or a piece, a line headed by the entry shows the natural chain unless it says otherwise.
UniProt C4AMC7: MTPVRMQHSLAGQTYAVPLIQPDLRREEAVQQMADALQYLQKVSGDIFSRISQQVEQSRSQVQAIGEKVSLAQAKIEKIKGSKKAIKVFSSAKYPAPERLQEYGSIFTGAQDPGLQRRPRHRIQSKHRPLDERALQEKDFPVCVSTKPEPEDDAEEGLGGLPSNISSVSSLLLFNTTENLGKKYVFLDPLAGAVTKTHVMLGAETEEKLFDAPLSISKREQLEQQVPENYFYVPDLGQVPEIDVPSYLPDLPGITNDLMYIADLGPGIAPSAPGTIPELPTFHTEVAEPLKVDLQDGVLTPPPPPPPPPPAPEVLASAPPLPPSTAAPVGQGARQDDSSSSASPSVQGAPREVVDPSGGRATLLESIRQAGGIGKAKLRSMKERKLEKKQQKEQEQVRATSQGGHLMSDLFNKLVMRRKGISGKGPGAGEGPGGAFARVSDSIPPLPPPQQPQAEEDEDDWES
UniProt Q6VEQ5: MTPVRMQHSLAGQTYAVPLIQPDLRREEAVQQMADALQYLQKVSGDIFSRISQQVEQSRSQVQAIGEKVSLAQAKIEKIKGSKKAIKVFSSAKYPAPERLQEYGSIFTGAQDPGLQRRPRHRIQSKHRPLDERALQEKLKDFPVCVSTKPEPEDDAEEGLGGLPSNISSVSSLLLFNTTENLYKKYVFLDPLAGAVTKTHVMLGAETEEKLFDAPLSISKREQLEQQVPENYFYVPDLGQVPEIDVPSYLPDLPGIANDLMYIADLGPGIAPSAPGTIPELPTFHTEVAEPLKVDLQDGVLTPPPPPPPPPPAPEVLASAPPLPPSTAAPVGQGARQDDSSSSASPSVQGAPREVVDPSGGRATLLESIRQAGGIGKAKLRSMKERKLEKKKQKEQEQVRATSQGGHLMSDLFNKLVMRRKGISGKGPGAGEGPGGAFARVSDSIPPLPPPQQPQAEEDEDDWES
UniProt P54252: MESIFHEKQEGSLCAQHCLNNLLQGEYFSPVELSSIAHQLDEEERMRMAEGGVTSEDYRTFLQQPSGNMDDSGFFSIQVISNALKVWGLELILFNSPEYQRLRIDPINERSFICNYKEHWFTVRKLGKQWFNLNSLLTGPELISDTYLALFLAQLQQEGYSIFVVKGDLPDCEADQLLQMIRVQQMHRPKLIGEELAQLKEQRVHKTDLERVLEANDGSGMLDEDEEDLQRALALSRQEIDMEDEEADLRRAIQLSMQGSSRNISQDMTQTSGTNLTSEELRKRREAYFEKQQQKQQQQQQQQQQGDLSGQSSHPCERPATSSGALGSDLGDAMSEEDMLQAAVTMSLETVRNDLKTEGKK
UniProt Q86VE9: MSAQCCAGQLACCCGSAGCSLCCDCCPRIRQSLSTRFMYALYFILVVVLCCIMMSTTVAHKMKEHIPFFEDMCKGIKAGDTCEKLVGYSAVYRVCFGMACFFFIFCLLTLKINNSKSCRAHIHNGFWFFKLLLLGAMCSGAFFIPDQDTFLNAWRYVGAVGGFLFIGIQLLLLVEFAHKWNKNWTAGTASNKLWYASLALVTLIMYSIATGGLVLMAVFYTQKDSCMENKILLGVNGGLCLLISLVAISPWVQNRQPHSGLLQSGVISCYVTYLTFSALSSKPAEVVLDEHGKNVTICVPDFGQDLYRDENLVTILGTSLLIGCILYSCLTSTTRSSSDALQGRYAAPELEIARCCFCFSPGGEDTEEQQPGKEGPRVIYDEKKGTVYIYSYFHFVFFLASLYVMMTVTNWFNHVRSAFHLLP
UniProt P04062: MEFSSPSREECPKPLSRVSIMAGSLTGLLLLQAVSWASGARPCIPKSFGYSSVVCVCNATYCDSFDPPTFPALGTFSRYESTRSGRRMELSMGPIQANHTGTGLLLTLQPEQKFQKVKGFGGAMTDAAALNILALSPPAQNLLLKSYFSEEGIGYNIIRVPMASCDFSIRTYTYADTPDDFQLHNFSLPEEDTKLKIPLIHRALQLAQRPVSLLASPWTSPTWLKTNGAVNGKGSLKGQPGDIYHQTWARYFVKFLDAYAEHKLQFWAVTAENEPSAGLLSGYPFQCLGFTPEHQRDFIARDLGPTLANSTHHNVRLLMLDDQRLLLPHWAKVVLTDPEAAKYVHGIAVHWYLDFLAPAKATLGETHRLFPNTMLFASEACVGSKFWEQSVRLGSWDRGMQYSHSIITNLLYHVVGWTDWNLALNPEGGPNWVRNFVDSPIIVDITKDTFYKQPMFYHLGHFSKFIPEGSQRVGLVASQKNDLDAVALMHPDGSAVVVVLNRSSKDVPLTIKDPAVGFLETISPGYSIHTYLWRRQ
UniProt P62070: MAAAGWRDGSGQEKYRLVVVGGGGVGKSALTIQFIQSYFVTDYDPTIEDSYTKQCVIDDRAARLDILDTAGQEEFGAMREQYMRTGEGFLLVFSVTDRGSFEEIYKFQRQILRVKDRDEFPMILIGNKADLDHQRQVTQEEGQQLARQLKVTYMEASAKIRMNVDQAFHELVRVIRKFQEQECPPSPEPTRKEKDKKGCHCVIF
UniProt Q9NZ72: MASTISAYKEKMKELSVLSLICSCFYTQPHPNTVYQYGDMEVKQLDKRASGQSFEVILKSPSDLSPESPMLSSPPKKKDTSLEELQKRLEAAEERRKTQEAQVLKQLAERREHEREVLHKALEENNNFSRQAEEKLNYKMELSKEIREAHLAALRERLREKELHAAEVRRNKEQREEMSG
UniProt Q9Y2R2, whole entry: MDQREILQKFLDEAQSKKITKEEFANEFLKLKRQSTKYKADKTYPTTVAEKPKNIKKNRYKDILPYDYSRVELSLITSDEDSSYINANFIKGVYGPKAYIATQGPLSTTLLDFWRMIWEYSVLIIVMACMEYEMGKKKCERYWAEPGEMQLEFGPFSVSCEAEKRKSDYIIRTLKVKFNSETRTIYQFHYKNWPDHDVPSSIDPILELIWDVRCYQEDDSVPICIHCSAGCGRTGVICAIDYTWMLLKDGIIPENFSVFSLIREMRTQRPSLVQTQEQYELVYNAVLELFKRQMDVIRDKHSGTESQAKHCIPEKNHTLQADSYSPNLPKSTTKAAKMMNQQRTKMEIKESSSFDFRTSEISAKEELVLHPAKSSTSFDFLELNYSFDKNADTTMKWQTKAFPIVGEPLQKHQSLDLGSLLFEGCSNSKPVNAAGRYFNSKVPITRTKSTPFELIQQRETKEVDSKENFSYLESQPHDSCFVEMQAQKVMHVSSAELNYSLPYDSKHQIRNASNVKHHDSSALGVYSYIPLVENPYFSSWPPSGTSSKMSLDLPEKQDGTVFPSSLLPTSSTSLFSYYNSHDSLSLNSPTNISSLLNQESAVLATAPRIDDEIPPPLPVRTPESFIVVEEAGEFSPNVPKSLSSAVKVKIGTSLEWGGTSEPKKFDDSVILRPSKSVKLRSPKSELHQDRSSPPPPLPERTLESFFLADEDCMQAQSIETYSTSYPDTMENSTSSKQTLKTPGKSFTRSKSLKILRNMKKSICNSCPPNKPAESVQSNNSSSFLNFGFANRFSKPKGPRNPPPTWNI
UniProt Q9UHX1: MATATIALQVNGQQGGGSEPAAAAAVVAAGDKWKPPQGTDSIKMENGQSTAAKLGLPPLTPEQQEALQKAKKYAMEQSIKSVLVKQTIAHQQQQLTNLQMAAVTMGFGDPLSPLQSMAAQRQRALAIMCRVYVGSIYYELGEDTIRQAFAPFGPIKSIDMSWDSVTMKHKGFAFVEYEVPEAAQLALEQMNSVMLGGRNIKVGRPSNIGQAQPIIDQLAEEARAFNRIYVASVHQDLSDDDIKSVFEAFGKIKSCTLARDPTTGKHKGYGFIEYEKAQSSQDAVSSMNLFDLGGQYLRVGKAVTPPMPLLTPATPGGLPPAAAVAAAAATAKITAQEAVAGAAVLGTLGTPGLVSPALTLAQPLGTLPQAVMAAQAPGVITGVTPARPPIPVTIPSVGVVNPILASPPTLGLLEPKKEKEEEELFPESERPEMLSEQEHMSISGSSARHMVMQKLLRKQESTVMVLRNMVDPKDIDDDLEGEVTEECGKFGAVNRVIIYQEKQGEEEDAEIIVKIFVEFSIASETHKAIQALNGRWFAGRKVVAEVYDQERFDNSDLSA
UniProt O94880: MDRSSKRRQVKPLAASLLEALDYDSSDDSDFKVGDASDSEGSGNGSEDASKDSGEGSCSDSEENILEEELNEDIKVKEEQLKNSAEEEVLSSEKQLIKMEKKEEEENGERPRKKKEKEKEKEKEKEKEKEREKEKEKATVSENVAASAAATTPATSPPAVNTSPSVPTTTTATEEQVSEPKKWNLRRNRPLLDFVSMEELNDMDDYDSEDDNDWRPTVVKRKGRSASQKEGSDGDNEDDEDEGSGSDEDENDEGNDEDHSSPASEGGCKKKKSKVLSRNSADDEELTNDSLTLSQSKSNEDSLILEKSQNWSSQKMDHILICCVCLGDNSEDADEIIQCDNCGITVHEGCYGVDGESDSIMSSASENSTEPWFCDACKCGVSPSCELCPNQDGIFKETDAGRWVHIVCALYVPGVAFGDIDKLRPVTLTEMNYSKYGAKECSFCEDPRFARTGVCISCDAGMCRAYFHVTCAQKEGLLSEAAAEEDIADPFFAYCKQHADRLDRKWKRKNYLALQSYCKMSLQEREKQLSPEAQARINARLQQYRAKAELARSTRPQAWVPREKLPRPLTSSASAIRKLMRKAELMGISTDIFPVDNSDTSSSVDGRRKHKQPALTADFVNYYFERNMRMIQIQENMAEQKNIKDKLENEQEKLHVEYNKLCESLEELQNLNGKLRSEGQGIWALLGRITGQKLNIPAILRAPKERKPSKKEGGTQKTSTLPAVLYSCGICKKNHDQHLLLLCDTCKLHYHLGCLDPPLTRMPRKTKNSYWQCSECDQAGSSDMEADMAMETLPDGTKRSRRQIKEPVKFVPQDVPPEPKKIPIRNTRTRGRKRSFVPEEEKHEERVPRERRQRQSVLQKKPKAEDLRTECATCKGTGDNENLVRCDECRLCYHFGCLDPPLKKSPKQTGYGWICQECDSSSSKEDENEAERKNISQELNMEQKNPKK
UniProt Q9Y4K4: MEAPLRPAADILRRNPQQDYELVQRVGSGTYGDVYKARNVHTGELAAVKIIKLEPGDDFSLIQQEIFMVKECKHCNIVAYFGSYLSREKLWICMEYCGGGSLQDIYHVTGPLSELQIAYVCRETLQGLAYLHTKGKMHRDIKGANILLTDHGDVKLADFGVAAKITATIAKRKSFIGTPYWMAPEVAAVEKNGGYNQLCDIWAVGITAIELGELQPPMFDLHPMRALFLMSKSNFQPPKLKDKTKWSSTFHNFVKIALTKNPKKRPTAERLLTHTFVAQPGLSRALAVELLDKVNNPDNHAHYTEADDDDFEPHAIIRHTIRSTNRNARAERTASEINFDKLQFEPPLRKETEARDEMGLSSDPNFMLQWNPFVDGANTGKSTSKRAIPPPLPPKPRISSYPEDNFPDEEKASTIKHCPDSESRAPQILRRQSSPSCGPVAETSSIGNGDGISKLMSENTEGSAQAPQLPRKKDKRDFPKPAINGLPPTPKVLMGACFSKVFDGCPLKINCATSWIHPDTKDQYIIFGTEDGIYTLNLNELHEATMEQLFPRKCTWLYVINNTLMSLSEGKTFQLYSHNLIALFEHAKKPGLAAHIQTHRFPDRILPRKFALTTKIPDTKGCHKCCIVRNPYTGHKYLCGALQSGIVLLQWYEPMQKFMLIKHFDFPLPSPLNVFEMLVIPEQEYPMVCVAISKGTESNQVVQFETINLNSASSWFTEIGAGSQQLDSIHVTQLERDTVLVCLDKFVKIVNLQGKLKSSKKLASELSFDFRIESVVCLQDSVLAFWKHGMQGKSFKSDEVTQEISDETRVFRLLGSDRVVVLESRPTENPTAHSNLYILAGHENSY
UniProt P01850: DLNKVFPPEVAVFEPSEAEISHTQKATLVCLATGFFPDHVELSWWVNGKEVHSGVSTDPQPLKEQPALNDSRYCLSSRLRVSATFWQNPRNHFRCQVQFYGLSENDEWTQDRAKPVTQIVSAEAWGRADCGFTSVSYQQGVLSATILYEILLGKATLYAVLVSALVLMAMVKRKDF
UniProt Q9H9A7: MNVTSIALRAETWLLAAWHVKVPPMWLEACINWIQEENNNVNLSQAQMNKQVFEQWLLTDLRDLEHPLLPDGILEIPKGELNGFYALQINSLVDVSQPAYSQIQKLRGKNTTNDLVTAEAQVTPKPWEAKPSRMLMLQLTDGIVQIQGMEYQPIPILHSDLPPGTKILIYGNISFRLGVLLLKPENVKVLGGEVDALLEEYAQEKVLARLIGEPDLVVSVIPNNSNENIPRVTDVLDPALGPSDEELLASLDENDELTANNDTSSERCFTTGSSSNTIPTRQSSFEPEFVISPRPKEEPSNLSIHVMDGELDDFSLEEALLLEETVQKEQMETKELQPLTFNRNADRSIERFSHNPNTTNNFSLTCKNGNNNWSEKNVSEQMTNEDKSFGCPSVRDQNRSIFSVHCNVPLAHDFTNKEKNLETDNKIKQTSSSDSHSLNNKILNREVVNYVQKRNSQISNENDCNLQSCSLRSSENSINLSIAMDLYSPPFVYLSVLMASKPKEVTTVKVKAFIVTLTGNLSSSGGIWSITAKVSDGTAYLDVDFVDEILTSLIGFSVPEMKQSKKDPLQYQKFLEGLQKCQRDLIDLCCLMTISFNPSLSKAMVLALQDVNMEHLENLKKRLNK

± gives the standard deviation of the averaged measurements. Only a part is listed here, and it is no random draw. Most entries show no effect beyond the scatter of the controls.

Compound in the test: Nc1ncnc2c1ncn2[C@@H]1O[C@H](COP(=O)(O)OP(=O)(O)NP(=O)(O)O)[C@@H](O)[C@H]1O [adenylyl imidodiphosphate]
The test is described as follows: NP40-soluble protein abundance relative to vehicle (solubility fold change) (ratio); higher = more soluble protein in presence of AMP-PNP. The method in brief: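 Values are fold changes against the detergent-processed vehicle, based on vsn-normalised intensities. Jurkat crude lysate was treated at eight concentrations from 0.1 to 10 mM (10 min at room temperature, then 3 min at 37 °C), solubilised with 0.8% NP40 and benzonase, ultracentrifuged and analysed by TMT-labelled LC-MS/MS over three independent experiments.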

With “A0A087WYY4|O75386 and related entries (UniProt O75386)”, the NP40-soluble protein abundance (concentration: 0.1mM) is 1.01 ± 0.027 and the NP40-soluble protein abundance (concentration: 0.5mM) came out at 1.03 ± 0.035.

Regarding A0A0A0MS41|Q9BWM7 (UniProt Q9BWM7), the NP40-soluble protein abundance (concentration: 0.1mM) is 1.01 ± 0.026 and the NP40-soluble protein abundance (concentration: 0.5mM) was 0.986 ± 0.036.

As to A0A0A6YYC8|I3L1I5 (UniProt I3L1I5), the NP40-soluble protein abundance reads like this: (concentration: 0.1mM) 1.01 ± 0.017; (concentration: 0.5mM) 1.0188 ± 0.0007.

“A0A096LP75|C4AMC7 and related entries (UniProt Q6VEQ5+C4AMC7)”: the NP40-soluble protein abundance came to 0.99 ± 0.053 (concentration: 0.1mM) and 0.977 ± 0.092 (concentration: 0.5mM).

Take “A0A140T9B7|A0A140T9Z6|P01889 and related entries (UniProt P18463+P01889+P30486+P10321+P16188+Q30167+P30504+P30460+P30493+Q29865+Q6DU44+E9PIB1+Q8MH48+P30508+Q5SRN5+Q9TNN7+Q29940+O19617+Q29963+Q31610)”: the NP40-soluble protein abundance (concentration: 0.1mM) is 0.99 ± 0.015 and the NP40-soluble protein abundance (concentration: 0.5mM) worked out at 1.002 ± 0.01.

Consider “A0A087X1A8|F5H211 and related entries (UniProt P54252)”, for which the NP40-soluble protein abundance was found to be 0.974 ± 0.024 (concentration: 0.1mM) and 0.989 ± 0.025 (concentration: 0.5mM).

Consider “A0A087X117|A0A0G2JN29|Q15155 (UniProt Q15155)”, for which the NP40-soluble protein abundance (concentration: 0.1mM) came out at 1.02 ± 0.012 and the NP40-soluble protein abundance (concentration: 0.5mM) was found to be 1.008 ± 0.007.

As for “A0A0A0MTB0|A0A0J9YYI4|D6RHG7 and related entries (UniProt Q86VE9)”, the NP40-soluble protein abundance runs as follows: (concentration: 0.1mM) 1.02 ± 0.043; (concentration: 0.5mM) 0.978 ± 0.047.

As to “A0A0G2JLB3|A0A0G2JNZ0|A0A0G2JNZ5|P04062 and related entries (UniProt P04062)”, the NP40-soluble protein abundance (concentration: 0.1mM) was determined as 0.9677 ± 0.0039 and the NP40-soluble protein abundance (concentration: 0.5mM) worked out at 0.984 ± 0.015.

As for “A0A0C4DGH2|P62070 and related entries (UniProt P62070)”, the NP40-soluble protein abundance (concentration: 0.1mM) was found to be 1 ± 0.031 and the NP40-soluble protein abundance (concentration: 0.5mM) came to 1.05 ± 0.069.

For “A0A0J9YW36|Q9NZ72 and related entries (UniProt Q9NZ72)”, the NP40-soluble protein abundance (concentration: 0.1mM) came out at 0.969 ± 0.021 and the NP40-soluble protein abundance (concentration: 0.5mM) stood at 0.981 ± 0.029.

Consider A0A0A0MSK4 (UniProt Q86YR5), for which the NP40-soluble protein abundance by setting is: (concentration: 0.1mM) 1.02 ± 0.018; (concentration: 0.5mM) 1.02 ± 0.021.

Regarding “A0A0A0MTD9|A0A0A0MTE6|A0A0B4J1S7|E9PMT0 and related entries (UniProt Q9Y2R2)”, the NP40-soluble protein abundance is 0.992 ± 0.045 (concentration: 0.1mM) and 1.01 ± 0.019 (concentration: 0.5mM).

As for “A0A0A0MSV9|A0A0G2JH37|A0A0G2JKZ1|A2AB90 and related entries (UniProt O15533)”, the NP40-soluble protein abundance is 1.04 ± 0.019 (concentration: 0.1mM) and 1.05 ± 0.044 (concentration: 0.5mM).

Regarding “A0A0A6YYD5|A0A0B4J2E0|A0A5A8 and related entries (UniProt P01733+A0A5A8)”, the NP40-soluble protein abundance by setting is: (concentration: 0.1mM) 0.973 ± 0.025; (concentration: 0.5mM) 0.956 ± 0.033.

In the case of “A0A0J9YVP6|E9PQ56 and related entries (UniProt Q9UHX1)”, the NP40-soluble protein abundance (concentration: 0.1mM) was 1.06 ± 0.034 and the NP40-soluble protein abundance (concentration: 0.5mM) came to 1.03 ± 0.033.

As for A0A0B4J220 (UniProt E9PRG8), the NP40-soluble protein abundance stood at 1.11 ± 0.051 (concentration: 0.1mM) and 1.149 ± 0.0064 (concentration: 0.5mM).

Consider A0A087X239|Q6PCB5 (UniProt Q6PCB5), for which the NP40-soluble protein abundance (concentration: 0.1mM) is 1.02 ± 0.014 and the NP40-soluble protein abundance (concentration: 0.5mM) turned out to be 1.008 ± 0.0032.

For the target A0A087WZN1|O43837 (UniProt O43837), the NP40-soluble protein abundance turned out to be 0.984 ± 0.025 (concentration: 0.1mM) and 1 ± 0.051 (concentration: 0.5mM).

For the target A0A0A0MRV0|Q9P2E9 (UniProt Q9P2E9), the NP40-soluble protein abundance (concentration: 0.1mM) is 1.01 ± 0.067 and the NP40-soluble protein abundance (concentration: 0.5mM) came to 1.04 ± 0.11.

For the target “A0A0C4DGT6|Q96AP0 and related entries (UniProt Q96AP0)”, the NP40-soluble protein abundance (concentration: 0.1mM) turned out to be 1.02 ± 0.038 and the NP40-soluble protein abundance (concentration: 0.5mM) was 1.01 ± 0.043.

For A0A087WWW9|O95999 (UniProt O95999), the NP40-soluble protein abundance turned out to be 0.97 ± 0.035 (concentration: 0.1mM) and 0.989 ± 0.032 (concentration: 0.5mM).

Turning to “A0A0A0MRP6|B7ZLQ5 and related entries (UniProt P28370)”, the NP40-soluble protein abundance (concentration: 0.1mM) came to 1.03 ± 0.086 and the NP40-soluble protein abundance (concentration: 0.5mM) was determined as 1 ± 0.046.

Consider A0A0C4DGQ8|Q6IAN0 (UniProt Q6IAN0), for which the NP40-soluble protein abundance came out at 1 ± 0.038 (concentration: 0.1mM) and 1.02 ± 0.039 (concentration: 0.5mM).

On to “A0A087X142|A6NFQ9 and related entries (UniProt Q92599)”, for which the NP40-soluble protein abundance by setting is: (concentration: 0.1mM) 0.98 ± 0.025; (concentration: 0.5mM) 0.989 ± 0.024.

As for A0A0U1RRH6|O94880 (UniProt O94880), the NP40-soluble protein abundance worked out at 0.971 ± 0.03 (concentration: 0.1mM) and 0.995 ± 0.039 (concentration: 0.5mM).

Turning to A0A0A0MR66|P98175-4 (UniProt P98175), the NP40-soluble protein abundance (concentration: 0.1mM) was 1.01 ± 0.041 and the NP40-soluble protein abundance (concentration: 0.5mM) stood at 1.01 ± 0.025.

On to “A0A0C4DG78|M0R3C6 and related entries (UniProt Q8TBC5)”, for which the NP40-soluble protein abundance runs as follows: (concentration: 0.1mM) 1.01 ± 0.017; (concentration: 0.5mM) 1.03 ± 0.02.

As for A0A0A0MQR1|Q9Y4K4 (UniProt Q9Y4K4), the NP40-soluble protein abundance was found to be 0.988 ± 0.014 (concentration: 0.1mM) and 0.992 ± 0.031 (concentration: 0.5mM).

For the target A0A087WZV8|A0A0G2JN66 (UniProt P01850), the NP40-soluble protein abundance is, setting by setting: (concentration: 0.1mM) 1.08 ± 0.042; (concentration: 0.5mM) 1.01 ± 0.072.

On to A0A0C4DFM1|Q92544 (UniProt Q92544), for which the NP40-soluble protein abundance reads like this: (concentration: 0.1mM) 1.02 ± 0.032; (concentration: 0.5mM) 0.988 ± 0.066.

Regarding A0A0C4DH44|P62888 (UniProt P62888), the NP40-soluble protein abundance reads like this: (concentration: 0.1mM) 1.02 ± 0.051; (concentration: 0.5mM) 1 ± 0.019.

As for “A0A096LPI6|A0A0B4J2D5|P30042 (UniProt P30042)”, the NP40-soluble protein abundance was found to be 0.972 ± 0.024 (concentration: 0.1mM) and 1 ± 0.049 (concentration: 0.5mM).

As to “A0A0D9SEU5|Q6VN20 and related entries (UniProt Q6VN20)”, the NP40-soluble protein abundance reads like this: (concentration: 0.1mM) 0.994 ± 0.031; (concentration: 0.5mM) 0.988 ± 0.032.

For A0A087X112|Q9H9A7 (UniProt Q9H9A7), the NP40-soluble protein abundance runs as follows: (concentration: 0.1mM) 1.02 ± 0.018; (concentration: 0.5mM) 1 ± 0.024.

For A0A0C4DG89|Q7L014 (UniProt Q7L014), the NP40-soluble protein abundance (concentration: 0.1mM) stood at 0.9952 ± 0.0038 and the NP40-soluble protein abundance (concentration: 0.5mM) came to 0.9912 ± 0.0078.

In the case of “A0A087WXF8|A0A087WXU5|A0A087WYF0|A0A0D9SEW3|E7EPF0 and related entries (UniProt Q9NP64)”, the NP40-soluble protein abundance by setting is: (concentration: 0.1mM) 0.966 ± 0.032; (concentration: 0.5mM) 0.989 ± 0.015.
